{
  "source": "patent US6060505A",
  "about": "(priority 1999, dated 2000)",
  "origin": "cited, not measured here",
  "tested_on": "humans",
  "conditions": "cited from earlier work",
  "note": "At least one read-out could not be matched to a standard name with certainty.",
  "data": [
    {"compound": "CCCC=CC=CC(=O)OC1C(=CC(=O)OC)CC2CC(C(C)O)OC(=O)CC(O)CC3CC(OC(C)=O)C(C)(C)C(O)(CC4CC(=CC(=O)OC)CC(C=CC(C)(C)C1(O)O2)O4)O3", "note": "(stereo not shown) [bryostatin 1]", "values": [
      {"measurement": "typically tolerated dose", "result": "less than 2 ug/kg"}
    ]}
  ]
}
